Test results: PMC9899197
Results are given in words; binding and its absence hold for the method and conditions named. Binding seen in cells or lysates may run through a third protein. Some entries that bind do so weakly or less than the wild type. For some of these results: Tags and fused reporters may be left off the sequences shown.

Chains of the proteins cited; added tags and fusions are not shown. Residues count along the entry.
UniProt O60939, residues 30-215: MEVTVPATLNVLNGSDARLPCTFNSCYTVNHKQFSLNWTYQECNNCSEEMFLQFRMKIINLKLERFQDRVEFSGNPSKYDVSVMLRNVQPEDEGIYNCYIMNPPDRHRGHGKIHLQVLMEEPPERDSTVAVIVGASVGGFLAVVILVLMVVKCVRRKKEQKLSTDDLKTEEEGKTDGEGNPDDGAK
UniProt Q07699, residues 19-218: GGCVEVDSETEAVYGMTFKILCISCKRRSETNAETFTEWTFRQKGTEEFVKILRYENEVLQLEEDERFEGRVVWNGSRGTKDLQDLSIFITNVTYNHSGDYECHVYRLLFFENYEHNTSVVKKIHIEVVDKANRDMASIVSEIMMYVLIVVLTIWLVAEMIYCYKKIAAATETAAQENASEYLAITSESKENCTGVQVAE
UniProt Q99250: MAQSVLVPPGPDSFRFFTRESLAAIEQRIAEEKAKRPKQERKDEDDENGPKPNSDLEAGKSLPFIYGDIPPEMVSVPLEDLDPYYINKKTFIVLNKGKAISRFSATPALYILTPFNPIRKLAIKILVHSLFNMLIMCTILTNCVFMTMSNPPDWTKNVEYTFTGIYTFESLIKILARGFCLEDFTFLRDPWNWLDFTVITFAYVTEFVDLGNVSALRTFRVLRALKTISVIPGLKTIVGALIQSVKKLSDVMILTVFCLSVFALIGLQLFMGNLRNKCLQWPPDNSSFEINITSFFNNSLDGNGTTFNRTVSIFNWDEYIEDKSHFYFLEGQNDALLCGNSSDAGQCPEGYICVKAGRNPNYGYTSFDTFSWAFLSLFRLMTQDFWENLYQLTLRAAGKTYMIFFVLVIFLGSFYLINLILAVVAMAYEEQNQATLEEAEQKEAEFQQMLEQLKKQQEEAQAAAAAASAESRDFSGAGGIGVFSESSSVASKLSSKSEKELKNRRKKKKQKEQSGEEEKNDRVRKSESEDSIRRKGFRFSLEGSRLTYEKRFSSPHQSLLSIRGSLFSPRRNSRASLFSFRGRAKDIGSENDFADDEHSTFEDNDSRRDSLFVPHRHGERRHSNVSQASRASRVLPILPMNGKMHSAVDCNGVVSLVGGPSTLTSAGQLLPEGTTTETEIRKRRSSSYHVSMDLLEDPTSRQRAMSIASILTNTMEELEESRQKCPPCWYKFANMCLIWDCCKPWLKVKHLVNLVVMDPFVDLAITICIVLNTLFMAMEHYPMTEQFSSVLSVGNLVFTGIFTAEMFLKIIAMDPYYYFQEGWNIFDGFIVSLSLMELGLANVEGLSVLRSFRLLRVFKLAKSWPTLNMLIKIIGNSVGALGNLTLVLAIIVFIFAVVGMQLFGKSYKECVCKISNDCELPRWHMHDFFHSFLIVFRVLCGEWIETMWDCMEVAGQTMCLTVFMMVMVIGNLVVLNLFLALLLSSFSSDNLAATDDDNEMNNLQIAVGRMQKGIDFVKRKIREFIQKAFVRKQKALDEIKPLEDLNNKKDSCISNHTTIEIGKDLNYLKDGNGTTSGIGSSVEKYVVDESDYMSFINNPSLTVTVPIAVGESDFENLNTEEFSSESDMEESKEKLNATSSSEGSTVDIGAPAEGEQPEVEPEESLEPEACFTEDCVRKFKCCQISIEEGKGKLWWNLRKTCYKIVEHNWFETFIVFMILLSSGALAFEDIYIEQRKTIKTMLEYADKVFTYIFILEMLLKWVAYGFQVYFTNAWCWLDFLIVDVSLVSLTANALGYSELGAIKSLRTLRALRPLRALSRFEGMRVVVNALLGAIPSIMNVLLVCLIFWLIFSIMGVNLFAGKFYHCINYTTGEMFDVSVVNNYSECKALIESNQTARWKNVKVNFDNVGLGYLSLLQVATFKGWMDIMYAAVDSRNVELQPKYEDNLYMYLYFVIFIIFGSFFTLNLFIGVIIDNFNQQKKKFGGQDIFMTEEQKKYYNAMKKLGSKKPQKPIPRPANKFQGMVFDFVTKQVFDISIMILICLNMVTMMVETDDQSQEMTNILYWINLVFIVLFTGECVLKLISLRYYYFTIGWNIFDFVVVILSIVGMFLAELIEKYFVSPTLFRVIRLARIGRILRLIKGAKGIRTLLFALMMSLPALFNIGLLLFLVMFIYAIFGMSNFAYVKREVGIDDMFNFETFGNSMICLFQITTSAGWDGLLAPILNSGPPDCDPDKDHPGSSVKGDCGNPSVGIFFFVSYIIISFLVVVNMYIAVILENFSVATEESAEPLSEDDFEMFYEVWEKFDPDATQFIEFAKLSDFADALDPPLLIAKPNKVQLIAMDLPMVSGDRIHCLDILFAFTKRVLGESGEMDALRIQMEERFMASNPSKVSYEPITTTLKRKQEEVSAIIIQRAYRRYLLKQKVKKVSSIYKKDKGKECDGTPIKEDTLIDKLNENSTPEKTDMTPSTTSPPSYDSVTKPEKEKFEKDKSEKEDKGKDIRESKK

Columns and labels:
Test in all cases: co-IP; NaV1.2-expressing HEK293 cells transfected with FLAG-tagged β-subunit (or FLAG-tagged BAP); anti-FLAG M2 Affinity Gel, 4 °C, 2 h; blot with anti-panNaV
[1] = biological target: FLAG-tagged NaV β2-subunit (SCN2B) (UniProt O60939)
[2] = biological target: T1, FLAG-tagged NaV β3-subunit (SCN3B) (UniProt Q9NY72)
T1 sequence: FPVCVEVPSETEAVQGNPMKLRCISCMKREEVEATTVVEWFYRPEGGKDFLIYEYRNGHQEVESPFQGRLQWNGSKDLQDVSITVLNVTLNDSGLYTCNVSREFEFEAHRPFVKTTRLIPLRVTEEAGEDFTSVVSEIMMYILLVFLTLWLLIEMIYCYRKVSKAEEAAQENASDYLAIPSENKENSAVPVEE

[3] = biological target: T2, FLAG-tagged NaV β4-subunit (SCN4B) (UniProt Q8IWT1)
T2 sequence: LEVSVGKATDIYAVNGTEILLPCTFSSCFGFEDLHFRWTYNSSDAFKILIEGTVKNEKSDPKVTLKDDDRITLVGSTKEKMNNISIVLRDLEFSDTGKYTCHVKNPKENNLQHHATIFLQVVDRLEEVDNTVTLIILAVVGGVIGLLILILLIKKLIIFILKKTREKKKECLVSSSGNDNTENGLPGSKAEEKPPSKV

[4] = biological target: FLAG-tagged NaV β1-subunit (SCN1B) (UniProt Q07699)

binding [1]: binds
binding [2]: binds
binding [3]: binds
binding [4]: binds
Substance: human NaV1.2 α-subunit (SCN2A) (from UniProt Q99250 1-2005)
